Results from PMC12379596.
Results are given in words; binding and its absence hold for the method and conditions named. Binding seen in cells or lysates may run through a third protein. These calls come from enrichment with a bait or labelling near it, and not all partners need be listed. Where a sequence is shown, tags or fusion partners need not be part of it.

Chains of the proteins cited; added tags and fusions are not shown. Lines headed by an entry give the natural chain unless they say otherwise; changes in a name come on top.
UniProt R0M6A3: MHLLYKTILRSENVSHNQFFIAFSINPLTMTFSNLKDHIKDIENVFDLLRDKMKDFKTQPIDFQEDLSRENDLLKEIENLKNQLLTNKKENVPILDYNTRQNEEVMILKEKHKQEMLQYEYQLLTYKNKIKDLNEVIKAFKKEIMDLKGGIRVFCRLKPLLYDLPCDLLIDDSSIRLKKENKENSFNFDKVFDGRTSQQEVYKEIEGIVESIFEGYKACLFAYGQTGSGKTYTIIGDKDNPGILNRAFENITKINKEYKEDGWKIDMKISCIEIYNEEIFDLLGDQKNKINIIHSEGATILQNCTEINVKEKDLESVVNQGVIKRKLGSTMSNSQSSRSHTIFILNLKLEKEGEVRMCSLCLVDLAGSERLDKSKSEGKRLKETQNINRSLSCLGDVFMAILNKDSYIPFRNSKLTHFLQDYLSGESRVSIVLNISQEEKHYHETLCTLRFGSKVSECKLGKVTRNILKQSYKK
UniProt R0M2W3: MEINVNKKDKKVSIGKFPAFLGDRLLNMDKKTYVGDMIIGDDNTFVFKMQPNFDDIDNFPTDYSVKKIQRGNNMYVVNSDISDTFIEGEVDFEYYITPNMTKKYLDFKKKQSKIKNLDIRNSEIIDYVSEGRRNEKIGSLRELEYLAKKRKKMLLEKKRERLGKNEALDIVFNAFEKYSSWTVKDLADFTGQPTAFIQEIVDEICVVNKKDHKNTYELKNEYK

T1: B. mori chitin deacetylase 8 (recombinant His-tagged BmCDA8 from pCold-TF) (B. mori) (UniProt H9JW43)
T1 sequence: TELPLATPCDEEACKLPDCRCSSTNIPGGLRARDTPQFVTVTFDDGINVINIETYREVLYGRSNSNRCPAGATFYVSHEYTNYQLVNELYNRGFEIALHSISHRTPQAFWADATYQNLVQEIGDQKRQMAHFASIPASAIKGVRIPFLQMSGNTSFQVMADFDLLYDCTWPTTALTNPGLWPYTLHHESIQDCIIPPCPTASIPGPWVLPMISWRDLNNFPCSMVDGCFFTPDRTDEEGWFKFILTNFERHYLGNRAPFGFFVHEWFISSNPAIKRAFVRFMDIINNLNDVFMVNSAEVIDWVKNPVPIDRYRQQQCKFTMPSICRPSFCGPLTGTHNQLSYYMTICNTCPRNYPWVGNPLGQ


Each molecule was assayed against T1, B. mori chitin deacetylase 8 (recombinant His-tagged BmCDA8 from pCold-TF) (B. mori) (assay: affinity purification with mass spectrometry; His-tagged recombinant BmCDA8 (pCold-TF) as bait incubated with total proteins extracted from N. bombycis; Dynabeads His-Tag Isolation & Pulldown kit; SDS-PAGE, silver staining, mass spectrometry of the pulled-down proteins; control pCold-TF empty plasmid; only the target purified).

Molecule | binding
Kinesin-2 (from UniProt R0M6A3) | binds
General transcription factor IIF subunit 2 (from UniProt R0M2W3) | binds
Target SNARE coiled-coil region (protein, UniProt R0M916 1-91) MTQEDSEEEAKIFTTRVKTLKHIAIDLSHAINAQNDKLNGLEPGFNQTITNLFKNIKNMKENDPKRFRAWVYFLGGTMCLGFLFFVLFILT | binds
CDT1 geminin-binding domain-containing protein (protein, UniProt R0KLY5 1-445) MKTKNLKDYLNKNKKKVKVIEDSRARESICKTIEEIVFSDEILTSDIMSSDLLSEVDCKIKKSKKESKYIESKESESIGSGAIEVTSSIESNPIEVVPIECKPIENKHLECKPIEVTTPIYTTPIEETTPIEVSNLDSRINKIKQFTNLNFNLDLNKLDTYLILPKPLLRLLKIFKSLLTIQNYNSIRKLTSIFIKVKGSIERTLRTRIEEEDIKKIYYLLGDKIEIKNLKIEDKGEMVKTFTFKIKCTGEEMEKRMREWCIEEKEKEVPCREWDNEGGEECGEDVKEMDGKEMNGKDKEVDGNNPLSTSNPPSIDNPISPISNPMPPSNLTTPSSVITPLLTPSTKALNKTNLILERIKEKELKRKQDFIKKIQKKNEERDLIKRILILFKKEGKQALKMKDVIKILEIFEGERQIKRIVKENPEEFEIREISEEKYLIYKKVI | binds
DNA-directed RNA polymerase I subunit RPA12 (protein, UniProt R0MJ59 1-99) MFCACGTLVNPKANSNVLKCGRCENPLDVNRMQEIQMSKKIEQKVDLEIKEVKGAKIKYKCTNCGAEEMMYNTAQLRSADEGQTVFYSCKCGYKQTVQS | binds
Uncharacterized protein R0KT40 (protein, UniProt R0KT40 1-140) MLSKIEEKLFNQEEGESEVSYFSFRIREELENLHFYINKLRRSIQIYTKPQNLNAEINSLLSNILKDIQTFKRTEESKDKENFMTKAKICHKKIIDVFWKYRLYLIDKKRNIKLIIKTFEKVSTCKVKIDAYLEKLISLS | binds
Vacuolar proton pump subunit D (protein, UniProt R0KZ58 1-214) MFMPPHKMADQRLQVFPTRMNLKIVDQKEKSAEKGWMLLKRKSDALKQRYKAISKEFKDKQSAITKSLNDAFFKLSEAEFLGGNILMYIHECQKQPVYVDVSTELVSGVSLTSFKMDRSSIKPIFWLDRSGPILNECRVMFLDVLDNLIELCALKNSFIVLEKILMSTNRRVNALEFSVIPKLQNTISYINAELDEQDREDFFRLKKIQNLKKK | binds
Uncharacterized protein R0KWK5 (protein, UniProt R0KWK5 1-187) MLYQIIYWINMCKSISVTIDSPISNYQEKDVHSSHVYANCISTYTGKDSEFSSESEGSEEQPSKDSNLKDSSLKDCYKPNNSKIICVDYPEVNAIYEKRLCYDIDSYYCTLRETEEQDKTSTTFCAKVYKSPCYFLFFLVVLCALIILSAYGVIYRKYWVFFIMFFICIVGLGAWAIKKSIERIPDD | binds
Uncharacterized protein R0MH05 (protein, UniProt R0MH05 1-162) MKFLEIKQILRTNEILKTIQEQYPIILDLEVYSCKNSKIYKMYKKTPKPLRYLLETLQRVYPDYSFIGEDWSNFKKLDYQNVANELIYSFLTFYKVKEKVDELVQFLGLIIDKTVFIDGCEIFSYTSREGPFEKDNWHFCFLFYSRSNKRVLFLSVRNTEIV | binds
Tail completion protein S (protein, UniProt R0MFQ0 1-71) MSADIAKKLRQRQQQRIKSQKAPEGSPFAPRKRPPVRAKQGRIKREMFAKLRTNRYMKASGGDSALVVEFA | binds
Uncharacterized protein R0MNI3 (protein, UniProt R0MNI3 1-395) MWAEKSVFEDTVINLKLNEPKSRVIYVKERFKQLVGKRLYKFMNRKCCKEAIMRLEKNEDFELLYFSSYFECYESFRIFEKNSRFFGLSKNPRDEKNTNKTIMNPKMFTQRVDKMIEKDLEKLSDNPEKSMPYKFYLNFLCKRKSVLDKNSAQKTFKLLVKKCFDDLKSKMLKKEIFFHIGGKYNVNYYFKELYNQAGKAVKEFQEKYEIADLKYKDVIFQKICESFHENLFNLQANIIDDLFKTDFIEEQVSKIFGIDVKFPDDISNVENIIFDCLNMLTYLSDFYCISGDSIYNTFNYPLIFNTEHKCKIVSCLKIQFDTQFSNDFVKIEAFNEKGGKVEFNRNVHYALKFNSNWEIYCTLEVLNKLNIKKIKIAIKRKKLCKTIELNKYLSN | binds
Uncharacterized protein R0KN04 (protein, UniProt R0KN04 1-133) MNKLYLDINVPDLENFDFEQPLTISMKEELVIYNLFVERFLWLSYMKDSFFKSSIESIAEKLKIRNRSCSFAKHYNISLMKGCSDIFYFFCDNNINIVNLHEMCLIKLQNGRFYYVQQDLSSNRSKYEFLFDY | binds
Uncharacterized protein R0MF04 (protein, UniProt R0MF04 1-332) MIQKKNSKISYVYTHKMQVLMTDQNNINFEAVQFTHKMVHLKSVKVYFYLILINHFLFKNRIHSAESLDYSSNETSMGCLSLNEEHKELFNNEQEKLSIEAQLQKNSIKLEKLKVHESINSSPATNESENIPKDFIALQDLIFKTSMRLNYLLKKTLPTLNKDLDEITAILFKIREKIIKMSKKSQTTNISLIGKIIQFFRKKPATQELPFLEIIRMYYEERITVYVCIYLRKHNMKDKSEKLHMKFNYFGFELYKMKVSRDFQDLDKIHGEFIESEIHTNAEKIFKEKERLLISIGRYKKQANLVLSIFTKFNTLTAEEFKADEEAKRYLM | binds
